Test results from patent publication US5548062A, “Tumor cell invasion-inhibiting peptides, peptide complexes and cancer metastasis inhibitors” (Asahi Glass Company Ltd., priority 1990, dated 1996).
At least one peptide structure holds a part that was inferred or is arguable (an end, a ring closure or a residue). Where a SMILES comes first, the peptide text is derived from it.

System: Highly metastatic mouse tumor cells B16FE7
Assay: Experimental lung metastasis: tumor cells and test substance injected in the lateral vein, metastatic foci on the lung surface counted two weeks later
Format: in vivo, C57BL/6j mouse
Conditions: 1.2 × 10^5 tumor cells per mouse

C[C@H](NC(=O)[C@H](CCCCN)NC(=O)[C@H](CCC(=O)O)NC(=O)[C@H](C)NC(=O)[C@H](CCC(N)=O)NC(=O)[C@@H](N)CC(=O)O)C(=O)O [peptide of the formula (13), Asp-Gln-Ala-Glu-Lys-Ala] (H-DQAEKA-OH)
Number of metastatic foci on the lung surface, Average ± standard error (Table 3, peptide 300 μg/mouse, 0 μg control 129.0 ± 26.3): 49.5 ± 10.2

C[C@H](N)C(=O)N[C@@H](CCC(=O)O)C(=O)N[C@@H](CCCCN)C(=O)N[C@@H](C)C(=O)N[C@@H](CCC(=O)O)C(=O)NCC(=O)N[C@@H](C)C(=O)NCC(=O)N[C@@H](CC(=O)O)C(=O)N[C@@H](C)C(=O)N[C@@H](CCCCN)C(=O)O [peptide of the formula (6), Ala-Glu-Lys-Ala-Glu-Gly-Ala-Gly-Asp-Ala-Lys] (H-AEKAEGAGDAK-OH)
Number of metastatic foci on the lung surface, Average ± standard error (Table 2, peptide 100 μg/mouse, 0 μg control 49.2 ± 8.8): 27.0 ± 4.0
Number of metastatic foci on the lung surface, Average ± standard error (Table 2, peptide 300 μg/mouse, 0 μg control 49.2 ± 8.8): 29.7 ± 3.4

C[C@H](NC(=O)[C@H](CCCCN)NC(=O)[C@H](CCC(=O)O)NC(=O)[C@H](C)NC(=O)[C@H](CCC(N)=O)NC(=O)[C@H](CC(=O)O)NC(=O)[C@@H](NC(=O)[C@H](CCCCN)NC(=O)[C@H](C)NC(=O)[C@@H](N)CC(=O)O)[C@@H](C)O)C(=O)N[C@@H](CCC(=O)O)C(=O)NCC(=O)O [peptide of the formula (7), Asp-Ala-Lys-Thr-Asp-Gln-Ala-Glu-Lys-Ala-Glu-Gly] (H-DAKTDQAEKAEG-OH)
Number of metastatic foci on the lung surface, Average ± standard error (Table 1, peptide 100 μg/mouse, 0 μg control printed 40.2 ± 8.8): 27.0 ± 4.0
Number of metastatic foci on the lung surface, Average ± standard error (Table 1, peptide 300 μg/mouse, 0 μg control printed 40.2 ± 8.8): 29.7 ± 3.4
